Reference: paper doi:10.1101/2020.06.15.152942
Where two headings read alike, the source gives them in different places. These are yes or no findings as the source states them, for the method shown. Binding seen in cells or lysates may run through a third protein. These calls come from enrichment with a bait or labelling near it, and not all partners need be listed. Where a sequence is shown, tags or fusion partners need not be part of it.

By UniProt entry, the sequences of proteins in these tests, tags left out.
UniProt Q02156: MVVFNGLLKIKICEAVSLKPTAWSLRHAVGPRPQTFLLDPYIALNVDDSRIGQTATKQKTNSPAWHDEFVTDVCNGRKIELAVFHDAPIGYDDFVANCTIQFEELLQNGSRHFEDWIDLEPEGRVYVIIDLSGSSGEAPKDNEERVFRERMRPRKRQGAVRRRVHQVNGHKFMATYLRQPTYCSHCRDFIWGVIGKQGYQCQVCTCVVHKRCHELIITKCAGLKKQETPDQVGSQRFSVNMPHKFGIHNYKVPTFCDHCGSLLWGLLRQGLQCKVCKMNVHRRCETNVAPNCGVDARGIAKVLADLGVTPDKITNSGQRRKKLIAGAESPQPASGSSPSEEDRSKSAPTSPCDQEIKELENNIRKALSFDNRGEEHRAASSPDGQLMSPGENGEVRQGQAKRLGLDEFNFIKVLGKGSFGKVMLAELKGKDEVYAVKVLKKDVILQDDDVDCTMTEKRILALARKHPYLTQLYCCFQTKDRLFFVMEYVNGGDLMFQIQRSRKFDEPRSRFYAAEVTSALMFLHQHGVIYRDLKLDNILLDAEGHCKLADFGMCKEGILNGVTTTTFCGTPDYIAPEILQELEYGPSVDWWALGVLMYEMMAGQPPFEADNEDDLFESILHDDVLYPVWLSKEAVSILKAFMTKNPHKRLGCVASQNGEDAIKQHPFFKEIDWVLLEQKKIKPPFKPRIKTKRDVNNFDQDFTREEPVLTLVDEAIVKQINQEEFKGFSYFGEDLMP

How the values were obtained:
[1] = target: T1, N-terminal GST tagged PTP-PEST (human) (UniProt Q05209); assay: affinity purification with mass spectrometry
T1 sequence: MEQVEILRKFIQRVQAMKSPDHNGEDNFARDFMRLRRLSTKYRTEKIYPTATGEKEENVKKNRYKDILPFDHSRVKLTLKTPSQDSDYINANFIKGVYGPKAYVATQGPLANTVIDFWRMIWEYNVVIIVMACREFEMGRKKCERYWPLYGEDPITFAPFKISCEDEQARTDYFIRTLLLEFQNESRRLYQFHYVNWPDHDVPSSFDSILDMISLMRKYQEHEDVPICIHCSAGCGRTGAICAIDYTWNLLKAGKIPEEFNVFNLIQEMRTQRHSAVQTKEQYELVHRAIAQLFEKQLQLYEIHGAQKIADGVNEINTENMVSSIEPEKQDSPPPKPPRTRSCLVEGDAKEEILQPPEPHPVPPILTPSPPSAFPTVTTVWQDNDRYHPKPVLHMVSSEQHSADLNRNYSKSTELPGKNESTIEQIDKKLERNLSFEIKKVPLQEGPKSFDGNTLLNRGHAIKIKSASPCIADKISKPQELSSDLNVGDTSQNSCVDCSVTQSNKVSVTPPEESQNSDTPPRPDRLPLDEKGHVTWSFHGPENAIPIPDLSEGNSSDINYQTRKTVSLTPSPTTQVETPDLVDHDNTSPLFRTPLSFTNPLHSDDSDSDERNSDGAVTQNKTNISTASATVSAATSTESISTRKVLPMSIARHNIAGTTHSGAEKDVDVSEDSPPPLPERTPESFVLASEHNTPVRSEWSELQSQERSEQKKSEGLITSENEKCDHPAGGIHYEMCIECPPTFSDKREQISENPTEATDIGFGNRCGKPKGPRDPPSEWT

[2] = target: T1, N-terminal GST tagged PTP-PEST (human); assay: affinity purification with mass spectrometry; remark: listed apart in the source

PKC epsilon (from UniProt Q02156 1-737) (enzyme)
binding [1]: binds

B1: myotubularin related protein 6 (MTMR6) (enzyme, UniProt Q9Y217 1-621)
chain: MEHIRTTKVEQVKLLDRFSTSNKSLTGTLYLTATHLLFIDSHQKETWILHHHIASVEKLALTTSGCPLVIQCKNFRTVHFIVPRERDCHDIYNSLLQLSKQAKYEDLYAFSYNPKQNDSERLQGWQLIDLAEEYKRMGVPNSHWQLSDANRDYKICETYPRELYVPRIASKPIIVGSSKFRSKGRFPVLSYYHQDKEAAICRCSQPLSGFSARCLEDEHLLQAISKANPVNRYMYVMDTRPKLNAMANRAAGKGYENEDNYSNIRFQFVGIENIHVMRSSLQKLLEVNGTKGLSVNDFYSGLESSGWLRHIKAVMDAAIFLAKAITVENASVLVHCSDGWDRTSQVCSLGSLLLDSYYRTIKGFMVLIEKDWISFGHKFSERCGQLDGDPKEVSPVFTQFLECVWHLTEQFPQAFEFSEAFLLQIHEHIHSCQFGNFLGNCQKEREELKLKEKTYSLWPFLLEDQKKYLNPLYSSESHRFTVLEPNTVSFNFKFWRNMYHQFDRTLHPRQSVFNIIMNMNEQNKQLEKDIKDLESKIKQRKNKQTDGILTKELLHSVHPESPNLKTSLCFKEQTLLPVNDALRTIEGSSPADNRYSEYAEEFSKSEPAVVSLEYGVARMTC
binding [2]: binds

B2: sarcolemmal membrane associated protein (SLAMP) (protein, UniProt Q14BN4 1-828)
chain: MPSALAIFTCRPNSHPFQERHVYLDEPIKIGRSVARCRPAQNNATFDCKVLSRNHALVWFDHKTGKFYLQDTKSSNGTFINSQRLSRGSEESPPCEILSGDIIQFGVDVTENTRKVTHGCIVSTIKLFLPDGMEARLRSDVIHAPLPSPVDKVAANTPSMYSQELFQLSQYLQEALHREQMLEQKLATLQRLLAITQEASDTSWQALIDEDRLLSRLEVMGNQLQACSKNQTEDSLRKELIALQEDKHNYETTAKESLRRVLQEKIEVVRKLSEVERSLSNTEDECTHLKEMNERTQEELRELANKYNGAVNEIKDLSDKLKVAEGKQEEIQQKGQAEKKELQHKIDEMEEKEQELQAKIEALQADNDFTNERLTALQVRLEHLQEKTLKECSSLEHLLSKSGGDCTFIHQFIECQKKLIVEGHLTKAVEETKLSKENQTRAKESDFSDTLSPSKEKSSDDTTDAQMDEQDLNEPLAKVSLLKDDLQGAQSEIEAKQEIQHLRKELIEAQELARTSKQKCFELQALLEEERKAYRNQVEESTKQIQVLQAQLQRLHIDTENLREEKDSEITSTRDELLSARDEILLLHQAAAKVASERDTDIASLQEELKKVRAELERWRKAASEYEKEITSLQNSFQLRCQQCEDQQREEATRLQGELEKLRKEWNALETECHSLKRENVLLSSELQRQEKELHNSQKQSLELTSDLSILQMSRKELENQVGSLKEQHLRDSADLKTLLSKAENQAKDVQKEYEKTQTVLSELKLKFEMTEQEKQSITDELKQCKNNLKLLREKGNNKPWPWMPMLAALVAVTAIVLYVPGLARASP
binding [2]: binds
